Assay results published in patent publication US6613742B1, “Chemokine-derived synthetic peptides” (Thomas Jefferson University, priority 1999, dated 2003).
These are yes or no findings as the source states them, for the method shown. Some entries that bind do so weakly or less than the wild type.

Amino acid sequences for entries named in this document (tags omitted).
UniProt P61073: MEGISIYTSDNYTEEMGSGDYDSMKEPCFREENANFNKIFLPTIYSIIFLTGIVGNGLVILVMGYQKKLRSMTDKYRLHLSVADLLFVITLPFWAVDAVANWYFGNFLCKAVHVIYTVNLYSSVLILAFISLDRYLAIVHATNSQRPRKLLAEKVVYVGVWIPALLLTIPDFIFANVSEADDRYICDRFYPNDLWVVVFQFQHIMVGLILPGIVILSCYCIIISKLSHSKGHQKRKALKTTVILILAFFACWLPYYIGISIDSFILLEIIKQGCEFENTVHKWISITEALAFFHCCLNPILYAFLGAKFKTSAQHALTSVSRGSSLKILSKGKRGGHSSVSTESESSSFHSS

B1: Peptide SEQ ID NO:4 (SDF-1 amino acids 5-14 and 55-67 linked by (Gly)4) (peptide)
peptide: LSYRCPCRFFGGGGLKWIQEYLEKALN
B2: Peptide SEQ ID NO:6 (SDF-1 amino acids 5-14 and 55-67 linked by (Gly)2) (peptide)
peptide: LSYRCPCRFFGGLKWIQEYLEKALN
B3: Peptide SEQ ID NO:7 (SDF-1 amino acids 5-14 and 55-67 linked by (Lys)4) (peptide)
peptide: LSYRCPCRFFKKKKLKWIQEYLEKALN

Biological target: CXC chemokine receptor 4 (UniProt P61073)
Assay: FACS; blocking of FITC-12D5 binding to CXCR4-transfected 293 cells

Binder | binding
B1 | binds
B2 | binds
B3 | binds
